Data as given in PubChem BioAssay AID1259308 (NCATS, 2017).
Shown is a random part of about 59,000 reagents tested. In the full data, about 1,510 (2.6%) got an active call. 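Calls use total luciferase alone and ignore viability, so some active siRNAs may act by altering cell number.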 Reagents against one gene are numbered here. Further read-outs or replicates are left out here. No sequences are given here.

- Purpose: 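Knock-downs that increase output of a recombinant reporter protein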 (primary screen)
- System: human HEK293 embryonic kidney cells stably expressing firefly luciferase (HEK-CMV-Luc2-Hygro)
- Reagent: single siRNA against human genes, 0.8 pmol siRNA per well
- Duration: 72 h
- Read-out: 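Reporter luminescence and viable-cell signal on separate replicate plates, given as percent of non-targeting control and median/MAD z-scores, plus per-cell luciferase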
- Direction: total luciferase, z-score: higher = more reporter protein produced
- Rule for the call: 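An siRNA counts as active if its total luciferase robust z-score exceeds 3; genes with two or more such siRNAs out of three were retested with fresh siRNAs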
- Calls: active = raised luciferase; inactive = no rise

The first 5 records, ahead of the listing:
{"Target gene":"ZNF329","reagent no.":1,"total luciferase, z-score":-0.0944,"Call":"inactive"}
{"Target gene":"ZNF329","reagent no.":2,"total luciferase, z-score":-1.22,"Call":"inactive"}
{"Target gene":"ZNF329","reagent no.":3,"total luciferase, z-score":-0.819,"Call":"inactive"}
{"Target gene":"RAD21L1","reagent no.":1,"total luciferase, z-score":1.65,"Call":"inactive"}
{"Target gene":"RAD21L1","reagent no.":2,"total luciferase, z-score":2.81,"Call":"inactive"}

The listing, from the first entry:
{"Target gene":"ZNF329","reagent no.":1,"total luciferase, z-score":-0.0944,"Call":"inactive"}
{"Target gene":"ZNF329","reagent no.":2,"total luciferase, z-score":-1.22,"Call":"inactive"}
{"Target gene":"ZNF329","reagent no.":3,"total luciferase, z-score":-0.819,"Call":"inactive"}
{"Target gene":"RAD21L1","reagent no.":1,"total luciferase, z-score":1.65,"Call":"inactive"}
{"Target gene":"RAD21L1","reagent no.":2,"total luciferase, z-score":2.81,"Call":"inactive"}
{"Target gene":"RAD21L1","reagent no.":3,"total luciferase, z-score":-1.3,"Call":"inactive"}
{"Target gene":"PELO","reagent no.":1,"total luciferase, z-score":1.19,"Call":"inactive"}
{"Target gene":"PELO","reagent no.":2,"total luciferase, z-score":-0.25,"Call":"inactive"}
{"Target gene":"PELO","reagent no.":3,"total luciferase, z-score":-0.648,"Call":"inactive"}
{"Target gene":"TUBA3C","reagent no.":1,"total luciferase, z-score":-0.13,"Call":"inactive"}
{"Target gene":"TUBA3C","reagent no.":2,"total luciferase, z-score":-0.875,"Call":"inactive"}
{"Target gene":"TUBA3C","reagent no.":3,"total luciferase, z-score":-0.103,"Call":"inactive"}
{"Target gene":"TIPE1","reagent no.":1,"total luciferase, z-score":0.466,"Call":"inactive"}
{"Target gene":"TIPE1","reagent no.":2,"total luciferase, z-score":2.04,"Call":"inactive"}
{"Target gene":"TIPE1","reagent no.":3,"total luciferase, z-score":0.751,"Call":"inactive"}
{"Target gene":"LIN7C","reagent no.":1,"total luciferase, z-score":0.387,"Call":"inactive"}
{"Target gene":"LIN7C","reagent no.":2,"total luciferase, z-score":0.16,"Call":"inactive"}
{"Target gene":"LIN7C","reagent no.":3,"total luciferase, z-score":2.9,"Call":"inactive"}
{"Target gene":"FOSL1","reagent no.":1,"total luciferase, z-score":-0.48,"Call":"inactive"}
{"Target gene":"FOSL1","reagent no.":2,"total luciferase, z-score":-0.891,"Call":"inactive"}
{"Target gene":"FOSL1","reagent no.":3,"total luciferase, z-score":0.597,"Call":"inactive"}
{"Target gene":"EPN2","reagent no.":1,"total luciferase, z-score":-1.61,"Call":"inactive"}
{"Target gene":"EPN2","reagent no.":2,"total luciferase, z-score":-0.526,"Call":"inactive"}
{"Target gene":"EPN2","reagent no.":3,"total luciferase, z-score":0.206,"Call":"inactive"}
{"Target gene":"LCMT2","reagent no.":1,"total luciferase, z-score":0.0674,"Call":"inactive"}
{"Target gene":"LCMT2","reagent no.":2,"total luciferase, z-score":-1.08,"Call":"inactive"}
{"Target gene":"LCMT2","reagent no.":3,"total luciferase, z-score":-0.499,"Call":"inactive"}
{"Target gene":"FBXO47","reagent no.":1,"total luciferase, z-score":-0.315,"Call":"inactive"}
{"Target gene":"FBXO47","reagent no.":2,"total luciferase, z-score":0.314,"Call":"inactive"}
{"Target gene":"FBXO47","reagent no.":3,"total luciferase, z-score":-0.275,"Call":"inactive"}
{"Target gene":"OR2G6","reagent no.":1,"total luciferase, z-score":-0.166,"Call":"inactive"}
{"Target gene":"OR2G6","reagent no.":2,"total luciferase, z-score":0.229,"Call":"inactive"}
{"Target gene":"OR2G6","reagent no.":3,"total luciferase, z-score":-0.251,"Call":"inactive"}
{"Target gene":"E4F1","reagent no.":1,"total luciferase, z-score":0.0095,"Call":"inactive"}
{"Target gene":"E4F1","reagent no.":2,"total luciferase, z-score":0.402,"Call":"inactive"}
{"Target gene":"E4F1","reagent no.":3,"total luciferase, z-score":-0.69,"Call":"inactive"}
{"Target gene":"TUBG1","reagent no.":1,"total luciferase, z-score":0.0573,"Call":"inactive"}
{"Target gene":"TUBG1","reagent no.":2,"total luciferase, z-score":-1.64,"Call":"inactive"}
{"Target gene":"TUBG1","reagent no.":3,"total luciferase, z-score":1.44,"Call":"inactive"}
{"Target gene":"VDAC2P5","reagent no.":1,"total luciferase, z-score":-0.986,"Call":"inactive"}
{"Target gene":"VDAC2P5","reagent no.":2,"total luciferase, z-score":0.562,"Call":"inactive"}
{"Target gene":"VDAC2P5","reagent no.":3,"total luciferase, z-score":0.223,"Call":"inactive"}
